The record followed here is PubChem BioAssay AID445 (National Center for Advancing Translational Sciences (NCATS), 2006).

SMILES strings stand for the structures. The list shows a part of the results. Shown are side measurements of this screen, not its main read-out; they come without a call. Compounds called inactive in the main read-out are mostly missing here. Potencies come from curve fits of mixed quality, noted in brackets.

By AC50 is commonly meant the midpoint of the concentration-response curve, whichever way the signal moves.

A short description of this assay: IkB Signaling. The following applies: ABC-DLBCL IkBa-CBG/CBR dual luciferase ratio (green luciferase fused to IkBa over red control in OCI-Ly3 lymphoma cells), 4 h; measured here: control luc red channel unless noted. A digest of the protocol: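 Curves were fitted separately to fusion (green), unfused (red) and ratio luminescence, then classed by r2, magnitude and activity. Cells: OCI-Ly3, 4 h compound plus doxycycline at 37C; 10 uM MG-132 defined full response.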
`Cc1ccc(Nc2sc(C(=O)c3ccccc3)c(N)c2S(=O)(=O)c2ccccc2)cc1Cl`: the AC50 is 7.94 µM [rising, partial curve].

In the case of `Cc1cc(OC(C)C(=O)N(Cc2ccc(N(C)C)cc2)Cc2ccco2)ccc1Cl` (stereo not drawn), the AC50 is 15.8 µM [falling, partial curve]. Consider `CC1CCCN(CCCNC(=O)c2ccc3c(c2)N(Cc2ccc(Cl)cc2)C(=O)c2ccccc2S3(=O)=O)C1` (stereo not drawn), for which the concentration at half-maximal activity (AC50) was 20 µM [falling, single point]. Take `Cc1ccccc1C(=O)Nc1cccc(OCc2cc(=O)n3cccc(C)c3n2)c1`: the AC50 was 15.8 µM [falling, partial curve]. As to `O=C(c1cnc(N2CCN(c3ncccn3)CC2)c2ccccc12)N1CCN(c2ccccn2)CC1`, the AC50 was 5.01 µM [falling, partial curve]. Consider `COC(=O)c1ccc(NC(=O)c2ccc3c(c2)OCO3)cc1`, for which the AC50 was 6.31 µM [falling, partial curve].

`N#Cc1ccsc1NC(=O)COc1ccc(-c2nnco2)cc1`: the AC50 was 15.8 µM [falling, single point]. The same measure for `O=C(NCc1ccccc1)c1ccc2c(c1)CCN2S(=O)(=O)c1ccc(Cl)cc1`: 25.1 µM [falling, single point]; for `CCOc1ccc(NC(=O)CSC(N)=O)cc1`: 3.16 µM [rising, full curve, poor fit] [measured here: IkB-luc green channel]. Turning to `CN1CCN(CCc2ccc(Cl)c(Cl)c2)CC1`, the AC50 is 1.26 µM [rising, full curve].

Turning to `COc1ccc2cc3c(N)nn(C(=O)c4ccccc4Cl)c3nc2c1`, the AC50 was 3.98 µM [falling, partial curve]. Regarding `COc1ccc(-c2noc(CN(C(=O)C(C)Oc3ccc(C)cc3)C(C)C)n2)cc1` (stereo not drawn), the AC50 was 31.6 µM [falling, partial curve].

For the molecule `Cc1cccc(CCNC(=O)c2cc3c(s2)-c2c(C)cccc2OC3)c1`, the AC50 was 0.158 µM [falling, full curve, poor fit].

Regarding `Cc1ccc2c(c1)N(C(=O)Nc1cccc3c1CCCC3)CCO2`, the half-maximal activity concentration (AC50) was 0.126 µM [falling, full curve, poor fit].

For the molecule `CCCN1CCN(C(=O)Cn2c(-c3cccs3)cc3cc(F)ccc32)CC1`, the AC50 is 25.1 µM [falling, partial curve]. Take `O=C(NCCc1ccccc1)c1ccc(Nc2nc3ccccc3n3nnnc23)cc1`: the AC50 was 10 µM [falling, partial curve].

Take `COc1ccc(-c2noc(CSc3nnc(C)n3-c3cccc(C)c3)n2)cc1`: the AC50 is 20 µM [falling, single point]. On to `COc1cc(C(=O)NCCc2csc(-c3ccc(Cl)cc3)n2)cc(OC)c1OC`, for which the AC50 was 15.8 µM [falling, partial curve].

Turning to `COc1ccc(O)c(C2=Nc3ccccc3N=C(c3ccccc3)C2)c1`, the AC50 is 10 µM [falling, partial curve]. For `CCOC(=O)c1nc(Nc2ccc(C(=O)OC(C)C)cc2)c2ccccc2n1`, the AC50 is 12.6 µM [falling, partial curve]. As to `COc1ccccc1NC(=O)c1oc2ccccc2c1NC(=O)Cc1ccccc1`, the AC50 was 39.8 µM [falling, partial curve]. Turning to `CC(O)Cc1nsc(NC(=O)c2cccs2)n1` (stereo not drawn), the AC50 was 20 µM [falling, single point].

On to `O=C(CN1C(=O)CC(c2ccccc2)=Nc2ccccc21)Nc1ccc(Br)cc1`, for which the AC50 is 7.94 µM [falling, full curve, poor fit]. For the molecule `COc1cc(NC(=O)Cc2nn(C)c(=O)c3ccccc23)cc(OC)c1`, the AC50 was 12.6 µM [falling, partial curve]. On to `Oc1ccccc1Nc1nc2ccccc2n2nnnc12`, for which the AC50 was 0.316 µM [falling, full curve]. `COc1ccc(-c2[nH]ncc2-c2ccc3c(c2)OCCO3)c(O)c1`: the AC50 is 3.16 µM [falling, partial curve].

Regarding `COc1ccc(-c2cnc(SCC(=O)Nc3cc(C)on3)n2Cc2ccco2)cc1`, the AC50 was 12.6 µM [falling, partial curve]. For `O=C(Cn1c(=O)n(Cc2nc(-c3ccccc3)no2)c(=O)c2ccccc21)Nc1cccc(Cl)c1`, the AC50 is 3.16 µM [falling, full curve]. Turning to `Cc1ccc(C)c(Nc2nnc(-c3ccc(C)c(S(=O)(=O)NCC4CCCO4)c3)c3ccccc23)c1` (stereo not drawn), the AC50 was 20 µM [falling, partial curve]. The same measure for `CCOc1ccc(N2C(=O)c3[nH]nc(-c4ccc(OC)cc4)c3C2c2cccs2)cc1` (stereo not drawn): 20 µM [falling, partial curve]; for `COc1ccccc1CN(Cc1cc2cc(C)ccc2[nH]c1=O)Cc1nnnn1CC1CCCO1` (stereo not drawn): 7.94 µM [falling, full curve]; for `Cc1cccc(NC(=O)CN2CCCN(S(=O)(=O)c3ccc(Br)s3)CC2)c1`: 12.6 µM [falling, partial curve]. Regarding `CN(C)CCC(=O)[C@@]1(O)CC[C@H]2[C@H]3CC=C4C[C@@H](O)CC[C@]4(C)[C@H]3CC[C@]21C`, the AC50 was 6.31 µM [rising, partial curve] [measured here: IkB-luc green channel]. On to `O=C(NCCC1=CCCCC1)C1CCN(C(=O)N2CCOc3ccc(Cl)cc32)CC1`, for which the AC50 was 25.1 µM [falling, single point]. Consider `COc1ccccc1C1C=C(c2ccc(C(C)C)cc2)Nc2nnnn21` (stereo not drawn), for which the AC50 is 25.1 µM [falling, partial curve]. Regarding `Fc1ccc(-n2ncc3c(Nc4cccc(Cl)c4)ncnc32)cc1`, the AC50 is 15.8 µM [falling, partial curve]. Consider `COc1cc(OC)cc(-c2nc3nc(C)c(CCC(=O)Nc4ccc(C)cc4C)c(C)n3n2)c1`, for which the AC50 is 20 µM [falling, single point]. Then `COc1ccc(C(=O)COC(=O)CN2CC(=O)Oc3ccccc32)cc1Br`, with 2.51 µM [falling, partial curve]; and `CCN(CC)S(=O)(=O)c1ccc(C(=O)Nc2nc3ccc(Cl)cc3s2)cc1`, with 0.794 µM [falling, full curve]. Then `CC1=CCC(Cc2nc3ccccc3o2)C1(C)C` (stereo not drawn), with 5.01 µM [falling, partial curve]; and `O=C1CCc2cc(S(=O)(=O)NCc3ccccc3Cl)cc3c2N1CC3`, with 31.6 µM [falling, partial curve, poor fit].

Turning to `CN(C)c1cccc(C(=O)Nc2cccc(F)c2)c1`, the AC50 was 20 µM [falling, partial curve]. On to `c1cncc(-c2nc(-c3ccco3)cs2)c1`, for which the AC50 is 39.8 µM [falling, single point]. On to `COc1cc(C(=O)N2CCN(c3ncnc4sc(C)c(C)c34)CC2)cc(OC)c1OC`, for which the AC50 is 12.6 µM [falling, partial curve]. With `O=C(CCn1ccc2cc(S(=O)(=O)N3CCCC3)ccc21)NCc1ccccc1F`, the AC50 was 12.6 µM [falling, single point]. Take `CCn1nc(C)c2c(-c3ccccc3)cc(=O)n(C(C)C(=O)NCc3ccccc3OC)c21` (stereo not drawn): the AC50 was 39.8 µM [falling, single point]. The same measure for `COc1cccc(NC(=O)c2oc3ccccc3c2NC(=O)C2CCCCC2)c1`: 25.1 µM [falling, single point]; for `COc1ccc(C(=O)/C=C/c2cn(CC(O)CN3CCc4ccccc43)c3ccccc23)cc1` (stereo not drawn): 6.31 µM [falling, partial curve]; for `CCCC(C(=O)NC1CCCC1)N(Cc1cccs1)C(=O)c1snc(C(N)=O)c1N` (stereo not drawn): 25.1 µM [falling, partial curve] [measured here: IkB-luc green channel]. With `CCc1ccccc1NC(=O)CSc1nc2n[nH]c(C)c2c(=N)n1-c1ccc(OC)cc1`, the AC50 is 25.1 µM [falling, partial curve]. On to `CC(C)CC(=O)Nc1nnc(S(=O)(=O)N(CC(C)C)c2ccccc2)s1`, for which the AC50 was 0.0501 µM [rising, full curve]. Then `Cc1ccc(CNC(=O)CCC(=O)N2CC3CCCN3c3ccccc32)cc1` (stereo not drawn), with 12.6 µM [falling, partial curve]. As to `CN(C)c1cccc(C(=O)NC2CCCCCC2)c1`, the AC50 is 12.6 µM [falling, partial curve].

`Cc1cc(C)c(S(=O)(=O)NCCc2cc3ccc(C)c(C)c3[nH]c2=O)c(C)c1`: the AC50 was 31.6 µM [falling, partial curve]. Consider `O=c1c2sc3ccccc3c2n(Cc2cccc(Cl)c2)c(=O)n1Cc1ccco1`, for which the AC50 is 7.94 µM [falling, full curve, poor fit]. For `Cc1ccccc1OCCn1c(=N)n(C(C)C)c2ccccc21`, the half-maximal activity concentration (AC50) was 31.6 µM [falling, single point]. With `Fc1ccc(-n2ncc3c(NC4CCCCCC4)ncnc32)cc1`, the AC50 was 3.98 µM [falling, partial curve]. In the case of `Cc1cc(C)nc(NS(=O)(=O)c2ccc(NC(=O)c3ccc4c(c3)OCO4)cc2)n1`, the AC50 was 3.16 µM [falling, partial curve]. The same measure for `O=C(CCc1ccccc1)NCc1nc2cccnc2n1Cc1ccc(F)cc1`: 39.8 µM [falling, single point]; for `CCOC(=O)N1CCc2c(sc3c2c(=O)n(-c2ccccc2)c(=O)n3CC(=O)Nc2ccc(OC)cc2OC)C1`: 0.158 µM [falling, full curve, poor fit]; for `CCOc1ccc(OCC)c(NC(=O)c2cc(S(=O)(=O)N3CCCC3)cn2C)c1`: 6.31 µM [rising, single point]. Consider `c1ccc(COc2ccc(OCCOCCn3cncn3)cc2)cc1`, for which the AC50 was 12.6 µM [falling, single point]. For `CCc1ccccc1N1CC(c2nc3ccccc3n2CCCOc2ccc(Cl)cc2)CC1=O` (stereo not drawn), the AC50 was 7.94 µM [falling, partial curve].
